Measurements as given in the supplement of paper PMC10849652.
Some of the results follow.

Chains of the proteins cited; added tags and fusions are not shown. Lines headed by an entry give the natural chain unless they say otherwise; changes in a name come on top.
UniProt P05543: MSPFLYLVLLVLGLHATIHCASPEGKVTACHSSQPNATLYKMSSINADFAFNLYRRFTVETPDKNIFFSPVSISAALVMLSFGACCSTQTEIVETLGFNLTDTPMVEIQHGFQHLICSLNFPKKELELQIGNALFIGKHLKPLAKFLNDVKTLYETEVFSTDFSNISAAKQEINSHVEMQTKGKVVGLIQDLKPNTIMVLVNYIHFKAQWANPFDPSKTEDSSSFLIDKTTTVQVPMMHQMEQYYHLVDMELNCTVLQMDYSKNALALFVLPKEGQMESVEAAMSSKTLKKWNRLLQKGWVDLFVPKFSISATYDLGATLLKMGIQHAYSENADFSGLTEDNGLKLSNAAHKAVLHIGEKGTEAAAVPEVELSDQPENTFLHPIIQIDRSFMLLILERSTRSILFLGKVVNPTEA
UniProt Q9BX95: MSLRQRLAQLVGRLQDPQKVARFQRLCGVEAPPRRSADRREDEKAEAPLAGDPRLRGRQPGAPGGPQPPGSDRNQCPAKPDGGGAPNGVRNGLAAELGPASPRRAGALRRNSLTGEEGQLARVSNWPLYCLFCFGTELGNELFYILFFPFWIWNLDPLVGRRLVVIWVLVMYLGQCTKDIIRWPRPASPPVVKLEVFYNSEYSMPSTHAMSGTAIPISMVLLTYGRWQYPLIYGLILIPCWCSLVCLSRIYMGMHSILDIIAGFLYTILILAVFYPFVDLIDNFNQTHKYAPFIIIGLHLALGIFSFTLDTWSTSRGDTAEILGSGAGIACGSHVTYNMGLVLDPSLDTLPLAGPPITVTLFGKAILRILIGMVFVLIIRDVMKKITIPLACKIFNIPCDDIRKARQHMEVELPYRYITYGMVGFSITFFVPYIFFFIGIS
UniProt Q53H47: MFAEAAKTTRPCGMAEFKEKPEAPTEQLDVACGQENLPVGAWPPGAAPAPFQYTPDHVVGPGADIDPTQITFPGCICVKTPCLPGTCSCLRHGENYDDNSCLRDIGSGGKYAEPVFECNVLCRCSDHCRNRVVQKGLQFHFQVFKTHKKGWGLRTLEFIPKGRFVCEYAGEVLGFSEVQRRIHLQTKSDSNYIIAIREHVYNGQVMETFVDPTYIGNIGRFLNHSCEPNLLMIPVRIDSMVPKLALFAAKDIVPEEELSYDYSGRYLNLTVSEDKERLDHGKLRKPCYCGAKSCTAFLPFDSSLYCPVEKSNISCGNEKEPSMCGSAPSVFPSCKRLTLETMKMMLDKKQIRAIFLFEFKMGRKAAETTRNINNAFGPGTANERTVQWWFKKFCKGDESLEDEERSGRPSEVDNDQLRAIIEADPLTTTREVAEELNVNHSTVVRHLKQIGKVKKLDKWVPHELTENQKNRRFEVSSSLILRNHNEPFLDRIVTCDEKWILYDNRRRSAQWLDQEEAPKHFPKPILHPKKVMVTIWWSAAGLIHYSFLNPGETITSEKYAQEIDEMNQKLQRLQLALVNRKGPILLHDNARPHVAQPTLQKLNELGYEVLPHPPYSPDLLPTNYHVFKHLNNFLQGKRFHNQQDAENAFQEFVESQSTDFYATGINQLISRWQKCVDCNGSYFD
UniProt Q96BD8: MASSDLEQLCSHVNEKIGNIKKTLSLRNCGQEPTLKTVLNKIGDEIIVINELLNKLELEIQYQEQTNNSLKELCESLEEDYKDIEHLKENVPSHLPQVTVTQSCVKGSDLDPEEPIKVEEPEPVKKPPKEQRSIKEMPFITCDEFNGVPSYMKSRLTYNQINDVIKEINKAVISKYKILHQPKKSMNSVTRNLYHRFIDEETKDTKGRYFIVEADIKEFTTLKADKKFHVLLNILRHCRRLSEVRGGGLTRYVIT
UniProt Q13530: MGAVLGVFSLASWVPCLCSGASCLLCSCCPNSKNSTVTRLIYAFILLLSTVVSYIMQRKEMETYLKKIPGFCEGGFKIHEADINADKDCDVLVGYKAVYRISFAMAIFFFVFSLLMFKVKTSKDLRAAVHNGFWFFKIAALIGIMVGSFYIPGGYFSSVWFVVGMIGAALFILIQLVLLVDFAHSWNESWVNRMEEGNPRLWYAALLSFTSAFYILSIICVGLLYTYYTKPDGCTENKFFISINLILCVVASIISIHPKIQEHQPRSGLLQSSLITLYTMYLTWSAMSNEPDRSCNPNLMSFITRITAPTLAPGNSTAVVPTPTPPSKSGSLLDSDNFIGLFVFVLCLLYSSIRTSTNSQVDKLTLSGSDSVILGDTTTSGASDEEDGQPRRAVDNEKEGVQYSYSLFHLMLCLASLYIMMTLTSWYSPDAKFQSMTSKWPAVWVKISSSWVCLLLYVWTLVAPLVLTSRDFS
UniProt P50452: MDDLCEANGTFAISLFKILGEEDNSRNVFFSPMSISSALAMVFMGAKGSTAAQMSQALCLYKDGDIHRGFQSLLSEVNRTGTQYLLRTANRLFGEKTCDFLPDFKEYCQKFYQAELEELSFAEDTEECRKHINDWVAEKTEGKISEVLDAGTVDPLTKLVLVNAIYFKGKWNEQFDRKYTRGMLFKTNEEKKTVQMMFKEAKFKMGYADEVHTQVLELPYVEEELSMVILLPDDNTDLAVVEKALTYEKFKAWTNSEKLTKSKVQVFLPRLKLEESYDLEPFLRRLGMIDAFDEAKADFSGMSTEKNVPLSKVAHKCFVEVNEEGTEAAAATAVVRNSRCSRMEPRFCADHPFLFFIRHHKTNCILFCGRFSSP
UniProt Q7L8J4: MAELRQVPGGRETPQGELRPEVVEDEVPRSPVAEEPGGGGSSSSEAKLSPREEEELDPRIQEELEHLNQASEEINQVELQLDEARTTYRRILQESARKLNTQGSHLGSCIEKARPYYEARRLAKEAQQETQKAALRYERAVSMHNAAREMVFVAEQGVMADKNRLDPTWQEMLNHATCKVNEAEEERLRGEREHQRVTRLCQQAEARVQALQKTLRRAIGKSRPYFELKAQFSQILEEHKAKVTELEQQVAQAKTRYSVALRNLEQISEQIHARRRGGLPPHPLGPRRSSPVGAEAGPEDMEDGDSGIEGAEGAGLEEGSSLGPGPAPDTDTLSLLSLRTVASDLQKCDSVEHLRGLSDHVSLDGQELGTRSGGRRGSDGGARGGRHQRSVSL
UniProt Q99611, whole entry, looked up: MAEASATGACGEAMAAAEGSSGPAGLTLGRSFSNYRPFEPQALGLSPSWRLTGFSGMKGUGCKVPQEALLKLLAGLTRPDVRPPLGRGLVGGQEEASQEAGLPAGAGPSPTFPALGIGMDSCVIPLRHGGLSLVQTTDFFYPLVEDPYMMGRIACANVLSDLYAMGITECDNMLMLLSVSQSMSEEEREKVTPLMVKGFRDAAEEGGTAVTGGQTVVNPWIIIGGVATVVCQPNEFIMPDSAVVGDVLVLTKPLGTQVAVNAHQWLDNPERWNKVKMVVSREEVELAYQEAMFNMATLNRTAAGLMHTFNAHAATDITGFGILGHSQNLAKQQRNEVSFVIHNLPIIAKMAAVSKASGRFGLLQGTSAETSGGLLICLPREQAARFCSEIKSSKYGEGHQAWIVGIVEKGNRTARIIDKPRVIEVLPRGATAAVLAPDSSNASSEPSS
UniProt Q9P0V9: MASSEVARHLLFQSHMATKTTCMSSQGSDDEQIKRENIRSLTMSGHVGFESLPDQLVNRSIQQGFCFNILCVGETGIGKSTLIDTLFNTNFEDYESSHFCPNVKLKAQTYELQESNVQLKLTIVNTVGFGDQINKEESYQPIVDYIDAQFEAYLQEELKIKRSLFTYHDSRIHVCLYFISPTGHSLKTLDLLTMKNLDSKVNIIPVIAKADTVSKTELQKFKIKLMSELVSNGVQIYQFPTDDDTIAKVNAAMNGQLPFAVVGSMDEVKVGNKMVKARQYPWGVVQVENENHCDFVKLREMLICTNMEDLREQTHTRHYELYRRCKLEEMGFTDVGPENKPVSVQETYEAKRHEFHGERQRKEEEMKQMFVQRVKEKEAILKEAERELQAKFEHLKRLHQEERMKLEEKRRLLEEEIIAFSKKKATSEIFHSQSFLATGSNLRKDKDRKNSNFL

Columns and labels:
Assay in all cases: log2 fold change, soluble protein after heating vs DMSO (PISA); higher = thermal stabilisation; K562 cells, 10 uM, 30 min; active = over 0.2 and 3.5 SD of the protein, either way, in both replicates (recomputed)
[1] = compound: CS(=O)(=O)c1ccc(-c2cnc(N)c(C(=O)Nc3ccccc3)n2)cc1
Procedure, shortened: (§1)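 K562 cells at 2×10^6 cells/mL were treated for 30 min with 10 μM compound, and aliquots were heated for 3 min over 48°C-58°C before pooling. Extraction used PBS with 0.5% NP-40 at 4°C, and soluble protein was the supernatant after 21,000xg for 90 min, measured by TMTpro 16plex LC-MS/MS with channel sums equalised. Thermal stability values, relative to control samples and from duplicates, are log2 fold changes.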

crizotinib = compound: C[C@@H](Oc1cc(-c2cnn(C3CCNCC3)c2)cnc1N)c1c(Cl)ccc(F)c1Cl [crizotinib]
Procedure, shortened: as §1

[2] = compound: C[C@@H]1COCCN1C2=NC(=NC(=C2)C3(CC3)S(=O)(=O)C)C4=C5C=CNC5=CC=C4
Procedure, shortened: as §1

[3] = compound: C[C@H](C1=CC=C(C=C1)C(=O)NC2=C3C=CNC3=NC=C2)N
Procedure, shortened: as §1

gandotinib = compound: Cc1cc(Nc2cc(CN3CCOCC3)c3nc(C)c(Cc4ccc(Cl)cc4F)n3n2)n[nH]1 [gandotinib]
Procedure, shortened: as §1

[4] = compound: Cc1cc(SCc2sc(-c3ccc(C(F)(F)F)cc3)nc2C)ccc1OCC(=O)O
Procedure, shortened: as §1

doramapimod = compound: Cc1ccc(-n2nc(C(C)(C)C)cc2NC(=O)Nc2ccc(OCCN3CCOCC3)c3ccccc23)cc1 [doramapimod]
Procedure, shortened: as §1

ispinesib = compound: Cc1ccc(C(=O)N(CCCN)[C@@H](c2nc3cc(Cl)ccc3c(=O)n2Cc2ccccc2)C(C)C)cc1 [ispinesib]
Procedure, shortened: as §1

bafetinib = compound: Cc1ccc(NC(=O)c2ccc(CN3CC[C@H](N(C)C)C3)c(C(F)(F)F)c2)cc1Nc1nccc(-c2cncnc2)n1 [bafetinib]
Procedure, shortened: as §1

[5] = compound: Cc1cccc(CC(=O)N2CCc3c2ccc(-c2cn(C)c4ncnc(N)c24)c3F)n1
Procedure, shortened: as §1

nilotinib = compound: Cc1cn(-c2cc(NC(=O)c3ccc(C)c(Nc4nccc(-c5cccnc5)n4)c3)cc(C(F)(F)F)c2)cn1 [nilotinib]
Procedure, shortened: as §1

[6] = compound: Cc1nc(Nc2n[nH]c3c2CN(C(=O)N[C@H](CN(C)C)c2ccccc2)C3(C)C)c2sccc2n1
Procedure, shortened: as §1

dasatinib = compound: Cc1nc(Nc2ncc(C(=O)Nc3c(C)cccc3Cl)s2)cc(N2CCN(CCO)CC2)n1 [dasatinib]
Procedure, shortened: as §1

[7] = compound: Cc1ncc(-c2ccnc(Nc3ccc(S(C)(=O)=O)cc3)n2)n1C(C)C
Procedure, shortened: as §1

[8] = compound: Cn1cc(-c2ccc3c(c2)CCN3C(=O)Cc2cccc(C(F)(F)F)c2)c2c(N)ncnc21
Procedure, shortened: as §1

[9] = compound: Cn1cc(-c2ccc3nnc(C(F)(F)c4ccc5ncccc5c4)n3n2)cn1
Procedure, shortened: as §1

tipifarnib = compound: Cn1cncc1[C@@](N)(c1ccc(Cl)cc1)c1ccc2c(c1)c(-c1cccc(Cl)c1)cc(=O)n2C [tipifarnib]
Procedure, shortened: as §1

mubritinib = compound: FC(F)(F)c1ccc(/C=C/c2nc(COc3ccc(CCCCn4ccnn4)cc3)co2)cc1 [mubritinib]
Procedure, shortened: as §1

duvelisib = compound: C[C@H](Nc1ncnc2nc[nH]c12)c1cc2cccc(Cl)c2c(=O)n1-c1ccccc1 [duvelisib]
Procedure, shortened: as §1

tozasertib = compound: Cc1cc(Nc2cc(N3CCN(C)CC3)nc(Sc3ccc(NC(=O)C4CC4)cc3)n2)n[nH]1 [tozasertib]
Procedure, shortened: as §1

Measured: log2 fold change

SERPINA7 (UniProt P05543)
inactive: [1] -0.16 | crizotinib 0.133 | [2] -0.095 | [3] 0.257 | gandotinib -0.02 | [4] -0.158 | doramapimod 0.217 | ispinesib 0.068 | bafetinib -0.191 | [5] -0.152 | nilotinib 0.05 | [6] 0.115 | dasatinib 0.098 | [7] 0.392 | [8] 0.238 | [9] 0.001 | tipifarnib 0.104 | mubritinib -0.247

SGPP1 (UniProt Q9BX95)
inactive: [1] -0.002 | crizotinib -0.041 | [2] 0.038 | [3] -0.106 | duvelisib 0 | gandotinib -0.215 | tozasertib -0.057 | [4] -0.03 | doramapimod 0.053 | bafetinib -0.206 | [5] -0.004 | nilotinib 0.028 | [6] -0.073 | dasatinib -0.034 | [7] -0.026 | [8] 0.044 | tipifarnib 0.121 | mubritinib -0.061

SETMAR (UniProt Q53H47)
inactive: [1] 0.077 | crizotinib 0.036 | [2] -0.028 | [3] 0.134 | gandotinib -0.129 | [4] 0.003 | doramapimod 0.024 | ispinesib 0.164 | bafetinib 0 | [5] -0.07 | nilotinib -0.104 | [6] 0.117 | dasatinib -0.013 | [7] 0.163 | [8] 0.028 | [9] 0.127 | tipifarnib 0.054 | mubritinib 0.04

SKA1 (UniProt Q96BD8)
inactive: [1] 0.013 | crizotinib -0.018 | [2] -0.295 | [3] 0.341 | duvelisib -0.153 | gandotinib -0.237 | [4] 0.052 | doramapimod 0.286 | ispinesib 0.125 | [5] 0.079 | nilotinib -0.276 | [6] -0.24 | dasatinib 0.096 | [7] 0.042 | [8] -0.325 | [9] -0.164 | tipifarnib 0.066 | mubritinib 0.081

SERINC3 (UniProt Q13530)
inactive: [1] 0.15 | crizotinib -0.228 | [2] 0.017 | [3] 0.225 | gandotinib -0.088 | [4] 0.096 | doramapimod -0.051 | ispinesib -0.17 | bafetinib -0.031 | [5] -0.035 | nilotinib 0.02 | [6] 0.039 | dasatinib -0.123 | [7] 0.07 | [8] -0.014 | [9] -0.077 | tipifarnib -0.115 | mubritinib 0.009

SERPINB8 (UniProt P50452)
inactive: [1] 0.004 | crizotinib 0.063 | [2] -0.042 | [3] -0.073 | duvelisib -0.043 | gandotinib 0.006 | tozasertib -0.06 | [4] -0.12 | doramapimod -0.072 | ispinesib 0.029 | bafetinib -0.121 | [5] 0.041 | nilotinib 0.067 | [6] -0.03 | dasatinib 0.113 | [7] 0.01 | [8] 0.001 | [9] 0.051 | tipifarnib 0.086 | mubritinib 0.105

Two successive entries already listed, quoted:
SKA1 (UniProt Q96BD8)
inactive: [1] 0.013 | crizotinib -0.018 | [2] -0.295 | [3] 0.341 | duvelisib -0.153 | gandotinib -0.237 | [4] 0.052 | doramapimod 0.286 | ispinesib 0.125 | [5] 0.079 | nilotinib -0.276 | [6] -0.24 | dasatinib 0.096 | [7] 0.042 | [8] -0.325 | [9] -0.164 | tipifarnib 0.066 | mubritinib 0.081

SERINC3 (UniProt Q13530)
inactive: [1] 0.15 | crizotinib -0.228 | [2] 0.017 | [3] 0.225 | gandotinib -0.088 | [4] 0.096 | doramapimod -0.051 | ispinesib -0.17 | bafetinib -0.031 | [5] -0.035 | nilotinib 0.02 | [6] 0.039 | dasatinib -0.123 | [7] 0.07 | [8] -0.014 | [9] -0.077 | tipifarnib -0.115 | mubritinib 0.009

(list continues)

SH3BP5L (UniProt Q7L8J4)
inactive: [1] 0.124 | crizotinib 0.059 | [2] -0.097 | [3] 0.003 | duvelisib -0.033 | gandotinib -0.091 | tozasertib 0.065 | [4] 0.015 | doramapimod 0.049 | ispinesib -0.065 | bafetinib -0.01 | [5] -0.058 | nilotinib 0.036 | [6] -0.033 | dasatinib 0.125 | [7] 0.049 | [8] -0.037 | [9] -0.117 | tipifarnib -0.104 | mubritinib 0.054

SEPHS2 (UniProt Q99611)
inactive: [1] 0.005 | crizotinib -0.034 | [2] -0.024 | [3] -0.07 | duvelisib -0.03 | gandotinib -0.123 | tozasertib -0.003 | [4] -0.015 | doramapimod -0.048 | ispinesib 0.139 | bafetinib 0.062 | [5] 0.092 | nilotinib 0.026 | [6] -0.006 | dasatinib -0.007 | [7] -0.017 | [8] 0.054 | [9] -0.027 | tipifarnib -0.122 | mubritinib -0.006

SEPTIN10 isoform 2 (UniProt Q9P0V9)
inactive: [1] -0.035 | [2] 0.092 | [3] -0.015 | duvelisib 0.072 | gandotinib -0.12 | tozasertib 0.055 | [4] -0.048 | bafetinib -0.06 | [5] -0.008 | nilotinib -0.01 | [6] 0.037 | dasatinib 0.019 | [7] 0.012 | [8] 0.184 | tipifarnib -0.037 | mubritinib 0.044
